# Library screening results

Each number is a percent effect as filed. The record does not define 0% and 100%; most values in the screen are far below 50% and negative numbers occur (in some assays of this library far below -100). This is an unselected part of the compounds tested. A dash means the value is not listed here; it may have been measured.

A: 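Whole-cell assay for inhibitors of Mycobacterium tuberculosis growth, labelled Cornell in the record; the read-out is not stated. The concentration is filed as 10 mM, unlikely as a test dose, so the dose is not known. Higher means stronger inhibition (inferred from two other growth screens of the library). Of about 53,000 compounds tested this way, about 900 (1.7%) reached 50% or more in at least one test.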
B: 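Assay on Mycobacterium tuberculosis, filed only as a heat shock assay from Cornell; the read-out is not stated. The concentration is filed as 10 mM, unlikely as a test dose, so the dose is not known. Higher reads as stronger inhibition (inferred: compounds with an IC50 in retests scored well above the rest). Size under these conditions: about 69,000 compounds, about 930 of them at 50% or above in at least one test.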

| structure | A | B |
|---|---|---|
| `CCCN1CC2(CCN(c3cc(C4CC4)ncn3)CC2)CC1C(=O)O` (stereo not given) | 18.69% | -5.938% |
| `Cc1ccc(F)c2c1N(C(=O)c1ccc(S(C)(=O)=O)cc1)CCC2` | 12.68% | 0.4705% |
| `Cc1cc(N2CCC3(CCC(=O)N(CCO)C3)CC2)nc(N(C)C)n1` | -4.327% | 1.172% |
| `CCCn1ncc(-c2ccnc(NC3CCCc4ccccc43)n2)c1C` (stereo not given) | 50.48% | 27.79% |
| `CC(C)COC(C)C(=O)NCc1ccc(OC(C)C)nc1` (stereo not given) | - | -3.989% |
| `Cc1ccc(-c2nc(C3CCN(C(=O)c4cnn(C)c4)CC3)no2)cn1` | -3.021% | -20.04% |
| `COCCN1CC2(CCOCC2)c2cc(NC(=O)C3CC=CC3)ccc21.O=C(O)C(F)(F)F` | 18.45% | 100.7% |
| `[H][C@@]12CN(C(=O)c3ccnnc3)C[C@]1([H])C(=O)N(Cc1cccc(C)c1)C2` | 16.8% | -16.56% |
| `Cc1ccc2oc(CN3CCC(C(=O)O)(n4ccnc4)CC3)c(C)c2c1` | 10.74% | -11.77% |
| `COc1ccccc1Oc1ncccc1CNC(=O)[C@H](N)CC(C)(C)C` | -22.97% | -0.7678% |
| `Cc1nc(-c2cc(C(=O)NCC(C)(C)CO)c3ccccn23)cs1` | -15.54% | 48.41% |
| `CCN1CC2(CC1=O)CN(C(=O)NC(C)C)CCN(C(=O)NC(C)C)C2` | 5.292% | 16.78% |
| `CC(C)OCCCNC(=O)C1CCCN(c2ccc3nncn3n2)C1` (stereo not given) | -32.1% | -10.48% |
| `Cc1nn(C)c2nc(N3CCN(Cc4nccn4C)CC3)sc12` | - | -4.81% |
| `CC(C)NC(=O)N1CCC2(CC1)Cc1ccccc1CNC2=O` | 13.67% | -0.9741% |
| `Cc1cc(C(F)(F)F)n2nc(C3CCCN(S(C)(=O)=O)C3)cc2n1` (stereo not given) | 19.13% | -6.421% |
| `O=C(Cc1cccnc1)N1CCC2(CCN(CC3CCCCC3)C2)CC1.O=C(O)C(F)(F)F.O=C(O)C(F)(F)F` | -44.02% | -41.87% |
| `CSc1ncccc1C(=O)N1CCC(c2nc3c(C)cccc3[nH]2)CC1` | -27.67% | -34.14% |
| `Cc1cc(C)n2c(CNCCNc3ccccc3)cnc2n1` | 4.206% | -10.52% |
| `Cc1ccc(NC2(C(=O)NCc3c(C)n[nH]c3C)CCCC2)cc1` | -24.01% | -15.37% |
| `Cc1nc(CN(C)C2CCCN(c3ccccc3)C2)no1` (stereo not given) | -1.27% | -9.504% |
| `CCS(=O)(=O)N1Cc2cncn2CC(C(=O)NCC2CC2)C1` (stereo not given) | -9.771% | 11.7% |
| `[H][C@@]12CS(=O)(=O)C[C@]1([H])N(C(=O)c1[nH]c3ccc(F)cc3c1C)CCN2C` | 2.323% | 6.685% |
| `CC(C)(C)NS(=O)(=O)c1ccc(NC(=O)C2CC2)cc1` | 11.98% | 13.15% |
| `CC(C)(C)c1cc(=O)n2c(n1)SCC(C(=O)NCc1ccco1)C2` (stereo not given) | -4.423% | 3.598% |
| `Cc1cnn(CC2CN(Cc3nc(C4CC4)no3)CCO2)c1` (stereo not given) | -3.351% | -10.89% |
| `COc1ccnc(N2CCN(CC(=O)N3CCOCC3)CC2)n1` | 19.84% | -14.41% |
| `O=c1[nH]c2c(c(=O)n1C1CCCCC1)CCC2NCCc1ccccc1` (stereo not given) | - | 2.782% |
| `CC(C)CCC(C)NC(=O)Nc1ccccn1` (stereo not given) | - | 29.05% |
| `CC(Cn1cccn1)NCc1csc(-c2ccc3c(c2)OCO3)n1` (stereo not given) | 59.29% | 35.45% |
| `Cc1cc2c(=O)n3c(nc2s1)CCN(C(=O)c1cnn(C)c1C)CC3` | -2.743% | -15.05% |
| `O=C(NCC1CC1)C1CCCN(c2cccc(C(F)(F)F)n2)C1` (stereo not given) | 22.39% | 35.93% |
| `OCC1CCCCN1Cc1cc(O)c2cccc(F)c2n1` (stereo not given) | -16.71% | -8.218% |
| `O=C(CN1CCCNC1=O)Nc1ccccc1C(=O)C1CCCC1` | - | 0.8256% |
| `COc1cc(C2CC(=O)c3c(O)cc(O)cc3O2)ccc1O` (stereo not given) | - | 5.655% |
| `COCC(=O)N1CCCn2c(CN3CCCCC3)nnc2C1.O=C(O)C(F)(F)F` | 17.25% | -20.73% |
| `Cc1ccc(CN2CC[C@@H](O)[C@@H]2Cc2ccccc2)o1.O=C(O)C(F)(F)F` | -35.02% | -24.6% |
| `Cc1cccnc1NCCNC(=O)C1CCN(Cc2ccco2)CC1` | - | -36.45% |
| `O=C(NCC1CCOCC1)c1cc(-c2ccncc2)c2cnccc2n1` | 9.032% | -2.387% |
| `CC(C)c1nc(N2CCC(N3CCCCCC3)CC2)c2cnn(C)c2n1` | 30.23% | 94.23% |
| `CCc1noc(C)c1C(=O)NCc1cc[nH]n1` | - | -14.26% |
| `CC(=O)N[C@@H]1CN(C(=O)Cc2coc3cc(C)ccc23)C[C@H]1O` | 15.91% | -3.906% |
| `Cn1c(C(=O)NC2CC2)nc2c1CCN(c1ncccn1)C2` | 8.335% | -4.848% |
| `CN(C(=O)CSc1ncc[nH]1)c1ccccc1` | -29% | -22.77% |
| `Cc1csc2c(=O)n(CCN3CCNCC3)cnc12` | -10.2% | -0.9173% |
| `CCc1cnc(CN(C)C2CCN(CCNS(=O)(=O)CC)C2)o1` (stereo not given) | -3.784% | -0.7254% |
| `Cn1ccnc1CN1CCC2(CCC(=O)N2CCN2CCCC2)CC1.O=C(O)C(F)(F)F.O=C(O)C(F)(F)F` | 19.98% | -22.33% |
| `COc1cc(CN(C)C(=O)Cc2c(C)nn(C)c2C)ccc1OC(F)F` | 10.08% | 21.66% |
| `Cc1ccc(C(=O)N2CCCC(CNS(C)(=O)=O)C2)o1` (stereo not given) | - | 0.9676% |
| `CNC(=O)CN1CCCC12CCN(C(=O)c1cccc(F)c1)CC2.O=C(O)C(F)(F)F` | -25.62% | -17.5% |
| `Fc1cccnc1Oc1cc(F)c(CN2CCCC2)c(Cl)c1` | 7.091% | -17.29% |
| `CC(C)(CNc1cc(F)ccc1F)S(C)(=O)=O` | 23.23% | 4.322% |
| `COc1ccc(NC(=O)c2nc(C)sc2C)cn1` | -0.0555% | -10.59% |
| `COCc1nc(C(=O)N2CCCC2c2ccccc2C)cs1` (stereo not given) | - | -4.548% |
| `CCc1nccn1C1CCCN(C(=O)c2ccc(OC)c(OC)c2)C1` (stereo not given) | -24.32% | -23.89% |
| `CN(C(=O)COc1ccc(-c2noc(C3CCCO3)n2)cc1)C1CC1` (stereo not given) | -0.6936% | 3.618% |
| `COc1cc(C)nc(N2CCN(C(=O)CCc3cscn3)CC2)n1` | - | -4.791% |
| `Cc1nn(C)c(N(C)C)c1CNCCCN(C(C)C)S(C)(=O)=O` | - | 4.777% |

For reference, 5 entries once more:

Result for O=C(CN1CCCNC1=O)Nc1ccccc1C(=O)C1CCCC1 was B: 0.8256%.
Result for CCCN1CC2(CCN(c3cc(C4CC4)ncn3)CC2)CC1C(=O)O (stereo not given) was A: 18.69%; B: -5.938%.
Result for CC(=O)N[C@@H]1CN(C(=O)Cc2coc3cc(C)ccc23)C[C@H]1O was A: 15.91%; B: -3.906%.
Result for COCC(=O)N1CCCn2c(CN3CCCCC3)nnc2C1.O=C(O)C(F)(F)F was A: 17.25%; B: -20.73%.
Result for Cc1ccc(CN2CC[C@@H](O)[C@@H]2Cc2ccccc2)o1.O=C(O)C(F)(F)F was A: -35.02%; B: -24.6%.

Measurements from “University of Dundee, Small-Polar-MMV Screening Library” (2021), ChEMBL document CHEMBL3988442.